From US20220387412A1, “Novel Superebastine Against Therapy Resistant Prostate Cancer” (University of Kentucky Research Foundation, priority 2019, published 2022)

Assays:
NSCLC cells = settings: read-out: LC50 (lysosomal catastrophe); NSCLC (non-small cell lung cancer) cells; cited from earlier work
prostate cancer cells = experiment: Growth inhibition / cell death of prostate cancer cell cultures; format: cell-based
Text: RAGE activation promotes proliferation, invasive bone homing, and metastasis of PCa cells.

Question: Which results are given for `CC(C)(C)c1ccc(C(=O)CCCN2CCC(OC(c3ccccc3)c3ccccc3)CC2)cc1` [EBS, 4-[4-(Diphenylmethoxy)-1-piperidinyl]-1-[4-(2-methyl-2-propanyl)phenyl]-1-butanone, reference compound]?
Answer: CC50 (NSCLC cells): 18 to 22 µM; inhibition at 10 µM (prostate cancer cells; prostate cancer cell cultures, 10 μM, 24 h): ≤ 50%; concentration required for growth inhibition (prostate cancer cells; prostate cancer cells): 10 µM
